Source: PubChem BioAssay AID1224826 (NIAID, 2016)
The whole screen tested about 17,000 reagents; below is a part drawn at random. Of all reagents, about 1,110 (6.6%) got an active call. 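Active means lowered or raised reporter signal; replicate intensities are raw and not normalised per plate.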 A number with no mark means an inactive call. The numbers tell different reagents against one gene apart. Not all columns of the deposit are shown. No sequences are given here.

- Assay: 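Knock-downs that raise or lower Tnf reporter signal after endotoxin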 (primary screen)
- Cells: RAW264.7 G9 macrophages from mouse bearing reporters for p65 (GFP) and the Tnf promoter (mCherry)
- Knock-down reagent: siRNA pool against mouse genes, 100 nM
- Time to read-out: 16 h of LPS stimulation, after 2 days of siRNA transfection
- Challenge: bacterial lipopolysaccharide (Salmonella minnesota R595), 10 ng/ml
- Detection: 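Imaged Tnf reporter mCherry in nuclei, minus background, normalised per plate to the median and expressed as robust z-scores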
- Direction: Tnf reporter robust z-score: higher = stronger Tnf promoter reporter signal after LPS
- Call rule: 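a well counts as active at a score of -1.3 or below (Tlr4 knock-down control median) or above 3 (raised signal); controls and wells holding fewer than 50 cells are excluded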
- Meaning of the calls: active = Tnf reporter clearly lowered or raised; inactive = no clear change in Tnf reporter

target | reagent | Tnf reporter robust z-score | fewer than 50 cells in well
Golgb1 | 1 | 0.34 | enough cells in well
Snupn | 1 | -0.12 | enough cells in well
Pgghg | 1 | -0.47 | enough cells in well
Pakap | 1 | 3.14 (active) | enough cells in well
Pakap | 2 | -0.21 | enough cells in well
Pbx2 | 1 | -0.58 | enough cells in well
Arhgef17 | 1 | -0.46 | enough cells in well
Ssh2 | 1 | 0.23 | enough cells in well
Or5e1 | 1 | 1.62 | enough cells in well
Dusp28 | 1 | -0.29 | enough cells in well
Nupr1 | 1 | 2.4 | enough cells in well
Defb21 | 1 | – | fewer than 50 cells per well; well left out of calls
Eif4b | 1 | 0.28 | enough cells in well
Tespa1 | 1 | -0.87 | enough cells in well
Dnali1 | 1 | 0.07 | enough cells in well
Ubr3 | 1 | 0.13 | enough cells in well
Cd33 | 1 | -0.69 | enough cells in well
Ptpn1 | 1 | -0.43 | enough cells in well
Hpca | 1 | -1.25 | enough cells in well
Kcnj5 | 1 | -0.22 | enough cells in well
Gramd1a | 1 | – | fewer than 50 cells per well; well left out of calls
Mrpl14 | 1 | -0.25 | enough cells in well

Reprinted from the entries so far (2 entries):
target | reagent | Tnf reporter robust z-score | fewer than 50 cells in well
Dusp28 | 1 | -0.29 | enough cells in well
Nupr1 | 1 | 2.4 | enough cells in well

Continued.
target | reagent | Tnf reporter robust z-score | fewer than 50 cells in well
Trim29 | 1 | 2.86 | enough cells in well
Vmn1r239-ps | 1 | -0.79 | enough cells in well
Or2aa1 | 1 | -1.32 (active) | enough cells in well
Phyhipl | 1 | 2.18 | enough cells in well
Arl10 | 1 | -0.77 | enough cells in well
Mrps5 | 1 | 0.34 | enough cells in well
Or6k2 | 1 | 0.49 | enough cells in well
Tmem94 | 1 | – | fewer than 50 cells per well; well left out of calls
Cdh1 | 1 | -0.58 | enough cells in well
Ube2v1 | 1 | 0.78 | enough cells in well
Mdga2 | 1 | 2.14 | enough cells in well
F830045P16Rik | 1 | 0.24 | enough cells in well
Sp100 | 1 | -0.38 | enough cells in well
Pspn | 1 | 0.06 | enough cells in well
Dab1 | 1 | -0.59 | enough cells in well
Dab1 | 2 | 0.85 | enough cells in well
Spen | 1 | -0.56 | enough cells in well
Pfdn4 | 1 | 0.02 | enough cells in well
